Data source: PubChem BioAssay AID1259254 (NCATS, 2017)
Aim: 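Genome-wide screen for genes that prevent DNA re-replication in cancer cells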 (primary screen). Cell system: human HCT116 colorectal cancer cells. Reagent: single siRNA against human genes. Duration: 3 days. Detection: 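Nuclei stained with Hoechst and imaged; cell-cycle phase assigned by DNA content; G2 share scaled per plate, non-targeting siRNA 0%, GMNN siRNA 100%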. Reading the numbers: G2 robust z-score and G2 cells, % of GMNN control: higher = more G2 cells, more excess DNA replication; raw share of cells in G2: higher = larger share of cells with G2 DNA content. Call rule: 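Active siRNAs have a G2 robust z of 5 or more median absolute deviations over the median, which in these data means about 38% or higher of GMNN control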.
The whole screen tested about 59,000 reagents; below is a part drawn at random. About 1,550 of all reagents (2.6%) were called active. 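G2 share is only a proxy for re-replication; each gene was hit by three separate siRNAs, and active genes were retested.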 The raw values are shown without normalisation. The numbers tell different reagents against one gene apart. The record does not give: the amount of reagent.

| target | reagent no. | G2 robust z-score | G2 cells, % of GMNN control | raw share of cells in G2 (%) | Call |
| --- | --- | --- | --- | --- | --- |
| SMCO2 | 1 | 0.568 | 6.96 | 6.38 | inactive |
| SMCO2 | 2 | 0.32 | 5.22 | 5.54 | inactive |
| SMCO2 | 3 | 1.05 | 10.4 | 8.37 | inactive |
| PRCC | 1 | 0.535 | 6.73 | 7.84 | inactive |
| PRCC | 2 | -0.22 | 1.42 | 4.78 | inactive |
| PRCC | 3 | -0.113 | 2.17 | 4.14 | inactive |
| BECN2 | 1 | 0.998 | 9.99 | 7.48 | inactive |
| BECN2 | 2 | 0.939 | 9.57 | 7.05 | inactive |
| BECN2 | 3 | 0.65 | 7.54 | 5.68 | inactive |
| NOX3 | 1 | 1.72 | 15.1 | 9.81 | inactive |
| NOX3 | 2 | -1.08 | -4.64 | 2.02 | inactive |
| NOX3 | 3 | 2.19 | 18.4 | 14.3 | inactive |
| ITGA10 | 1 | -0.535 | -0.799 | 4.98 | inactive |
| ITGA10 | 2 | -0.374 | 0.337 | 4.69 | inactive |
| ITGA10 | 3 | 1.99 | 16.9 | 10.8 | inactive |
| RCC2 | 1 | -0.585 | -1.15 | 3.89 | inactive |
| RCC2 | 2 | -1.08 | -4.61 | 2.26 | inactive |
| RCC2 | 3 | -0.317 | 0.737 | 3.26 | inactive |
| ADAMTS16 | 1 | 0.237 | 4.64 | 7.56 | inactive |
| ADAMTS16 | 2 | 0.0818 | 3.54 | 5.64 | inactive |
| ADAMTS16 | 3 | -0.71 | -2.03 | 3.51 | inactive |
| KCNC4 | 1 | 1.6 | 14.3 | 10.5 | inactive |
| KCNC4 | 2 | -0.877 | -3.2 | 3.7 | inactive |
| KCNC4 | 3 | 5.23 | 39.8 | 19.9 | active |
| OGFR | 1 | 2.42 | 20 | 10.7 | inactive |
| OGFR | 2 | -0.465 | -0.303 | 6.25 | inactive |
| OGFR | 3 | 1.44 | 13.1 | 8.53 | inactive |
| SUSD5 | 1 | 3.68 | 28.9 | 15.3 | inactive |
| SUSD5 | 2 | 0.653 | 7.56 | 7.22 | inactive |
| SUSD5 | 3 | -0.383 | 0.274 | 3.39 | inactive |

Reprinted from above for reference:
| target | reagent no. | G2 robust z-score | G2 cells, % of GMNN control | raw share of cells in G2 (%) | Call |
| --- | --- | --- | --- | --- | --- |
| RCC2 | 3 | -0.317 | 0.737 | 3.26 | inactive |
| ADAMTS16 | 1 | 0.237 | 4.64 | 7.56 | inactive |
